Test results published in patent US7829325B2, “Drug testing with bio-artificial organ slices including for example those derived from liver” (HepaHope, Inc., priority 2003, dated 2010).

System: liver slices
Details: 2 mg lidocaine dose; in presence of HL 100; FIG. 3A

SMILES: CCN(CC)CC(=O)Nc1c(C)cccc1C [lidocaine]
- time to reduce lidocaine levels to non-toxic levels: ≤ 30 min
